PubChem BioAssay AID652272, Drosophila RNAi Screening Center, 2013
The screen tested about 21,000 reagents; shown is an unselected part of those with a known target gene and a result. Of all reagents, 503 (2.4%) got an active call. 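Raw plate light values, not normalised; calls rest on replicate z-scores that were not deposited; hits include reporter decreases as well as increases.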 The numbers tell different reagents against one gene apart. A plus sign joins genes that one reagent is predicted to hit. Not given: the amount of reagent, the time to read-out.

- Screen: 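Genome-wide knock-down search for components of Hedgehog signalling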 (primary screen)
- Cell system: Drosophila clone 8 (Cl8) cells
- Knock-down reagent: long dsRNA against Drosophila genes
- Detection: 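Plate reader light from a firefly reporter under a ptc promoter fragment that responds to Hedgehog, with Renilla light as transfection reference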
- Scale: firefly Hh reporter signal: higher = more ptc reporter light; Renilla reference signal: higher = more Renilla control light
- Hit rule: 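Called a hit if the two-replicate mean z-score lies below -2 or above +3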
- Meaning of the calls: active = hit: reporter lowered or raised; inactive = not a hit

| target gene | reagent no. | firefly Hh reporter signal, replicate 1 | firefly Hh reporter signal, replicate 2 | firefly Hh reporter signal, replicate 3 | Renilla reference signal, replicate 1 | Renilla reference signal, replicate 2 | activity call |
| --- | --- | --- | --- | --- | --- | --- | --- |
| CG9168 | 1 | 71409 | 28043 | – | 2100 | 2200 | inactive |
| CG15814 | 1 | 90976 | 68005 | – | 2698 | 2381 | active |
| gus | 1 | 1.54e5 | 1.29e5 | – | 6032 | 5463 | inactive |
| gus | 2 | 66957 | 5.80e5 | 45099 | 1634 | 32469 | inactive |
| Tim9a | 1 | 83762 | 3.45e5 | – | 2080 | 12283 | inactive |
| Elys | 1 | 87660 | 65034 | – | 2369 | 1808 | inactive |
| SdhA | 1 | 68267 | 40675 | – | 3585 | 1952 | inactive |
| pcs | 1 | 1.72e5 | 77596 | – | 6406 | 1280 | inactive |
| sima | 1 | 68115 | 48075 | – | 1992 | 1116 | inactive |
| mus81 | 1 | 1.25e5 | 2.71e5 | – | 4797 | 9816 | inactive |
| mus81 | 2 | 1.17e5 | 3.17e5 | – | 4513 | 11459 | inactive |
| CG31388 | 1 | 1.74e5 | 1.19e5 | – | 7041 | 4683 | inactive |

Active calls, among the entries above:
| target gene | reagent no. | firefly Hh reporter signal, replicate 1 | firefly Hh reporter signal, replicate 2 | firefly Hh reporter signal, replicate 3 | Renilla reference signal, replicate 1 | Renilla reference signal, replicate 2 | activity call |
| --- | --- | --- | --- | --- | --- | --- | --- |
| CG15814 | 1 | 90976 | 68005 | – | 2698 | 2381 | active |

Continued.
| target gene | reagent no. | firefly Hh reporter signal, replicate 1 | firefly Hh reporter signal, replicate 2 | firefly Hh reporter signal, replicate 3 | Renilla reference signal, replicate 1 | Renilla reference signal, replicate 2 | activity call |
| --- | --- | --- | --- | --- | --- | --- | --- |
| CG17751 | 1 | 8.14e5 | 2.11e5 | – | 44625 | 5592 | inactive |
| Sobp | 1 | 50074 | 64704 | – | 2770 | 2941 | inactive |
| HHEX | 1 | 3.77e5 | 42672 | – | 25420 | 1911 | inactive |
| Rpp14b | 1 | 1.11e5 | 78827 | – | 4275 | 1717 | inactive |
| Fili | 1 | 1.17e5 | 1.81e5 | – | 2876 | 8763 | inactive |
| Fili | 2 | 85107 | 54914 | – | 2224 | 4999 | inactive |
| Fili | 3 | 72976 | 38996 | – | 2609 | 4208 | inactive |
| bbx + waw | 1 | 89088 | 1.08e5 | – | 2125 | 2810 | inactive |
| bbx + waw | 2 | 71025 | 2.18e5 | – | 1899 | 8530 | inactive |
| Pka-C3 | 1 | 2.89e5 | – | – | 7668 | – | inactive |
| Pka-C3 | 2 | 71377 | – | – | 5572 | 2822 | inactive |
